No constants are given. Whether binding was seen depends on the method and setting. Binding seen in cells or lysates may run through a third protein. Some entries that bind do so weakly or less than the wild type.
Experiments:
[1] = molecular target: T1, MEKK1 (Map3k1) C-terminus kinase domain-truncated mutant (1-1,222 aa) (mouse) (UniProt P53349); assay: co-IP; IP with FLAG antibodies from lysates of 67NR-OVA cells expressing Map3k1-WT or Map3k1-mut, after 24 h coculture with OT-I splenocytes; Western blot for DDX17
T1 sequence: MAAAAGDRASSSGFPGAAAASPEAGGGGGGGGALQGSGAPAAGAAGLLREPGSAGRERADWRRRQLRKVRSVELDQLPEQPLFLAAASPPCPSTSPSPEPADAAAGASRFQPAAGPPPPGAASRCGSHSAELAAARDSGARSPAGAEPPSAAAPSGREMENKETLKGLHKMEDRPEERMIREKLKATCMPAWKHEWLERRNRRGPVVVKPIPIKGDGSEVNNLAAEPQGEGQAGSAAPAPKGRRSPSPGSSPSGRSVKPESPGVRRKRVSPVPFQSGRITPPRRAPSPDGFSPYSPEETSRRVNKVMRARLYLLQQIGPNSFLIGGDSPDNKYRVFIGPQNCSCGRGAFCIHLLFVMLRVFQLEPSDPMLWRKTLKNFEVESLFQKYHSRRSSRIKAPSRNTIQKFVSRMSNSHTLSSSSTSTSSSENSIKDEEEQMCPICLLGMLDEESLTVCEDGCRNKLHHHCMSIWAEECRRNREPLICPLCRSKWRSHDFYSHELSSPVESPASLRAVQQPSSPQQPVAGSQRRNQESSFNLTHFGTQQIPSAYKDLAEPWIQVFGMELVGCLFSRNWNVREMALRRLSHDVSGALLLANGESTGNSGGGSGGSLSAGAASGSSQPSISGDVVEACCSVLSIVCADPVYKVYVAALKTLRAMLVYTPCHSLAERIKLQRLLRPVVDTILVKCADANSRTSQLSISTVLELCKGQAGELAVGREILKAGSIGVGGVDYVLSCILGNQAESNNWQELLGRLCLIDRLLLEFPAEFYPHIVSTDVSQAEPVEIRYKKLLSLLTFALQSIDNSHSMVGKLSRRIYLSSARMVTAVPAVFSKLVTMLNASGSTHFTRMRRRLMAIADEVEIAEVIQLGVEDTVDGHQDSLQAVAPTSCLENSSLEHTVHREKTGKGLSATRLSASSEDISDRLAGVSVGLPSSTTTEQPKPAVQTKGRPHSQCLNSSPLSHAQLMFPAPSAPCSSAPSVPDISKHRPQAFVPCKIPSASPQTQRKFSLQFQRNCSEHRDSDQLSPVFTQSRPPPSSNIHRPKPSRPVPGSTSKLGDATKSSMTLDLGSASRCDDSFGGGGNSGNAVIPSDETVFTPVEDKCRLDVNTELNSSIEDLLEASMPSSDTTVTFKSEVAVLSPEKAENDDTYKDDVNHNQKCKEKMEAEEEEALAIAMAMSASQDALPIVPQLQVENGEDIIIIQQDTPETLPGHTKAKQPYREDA

Sequences of proteins named here, by UniProt entry; tags and fusion partners are left off.
UniProt Q501J6: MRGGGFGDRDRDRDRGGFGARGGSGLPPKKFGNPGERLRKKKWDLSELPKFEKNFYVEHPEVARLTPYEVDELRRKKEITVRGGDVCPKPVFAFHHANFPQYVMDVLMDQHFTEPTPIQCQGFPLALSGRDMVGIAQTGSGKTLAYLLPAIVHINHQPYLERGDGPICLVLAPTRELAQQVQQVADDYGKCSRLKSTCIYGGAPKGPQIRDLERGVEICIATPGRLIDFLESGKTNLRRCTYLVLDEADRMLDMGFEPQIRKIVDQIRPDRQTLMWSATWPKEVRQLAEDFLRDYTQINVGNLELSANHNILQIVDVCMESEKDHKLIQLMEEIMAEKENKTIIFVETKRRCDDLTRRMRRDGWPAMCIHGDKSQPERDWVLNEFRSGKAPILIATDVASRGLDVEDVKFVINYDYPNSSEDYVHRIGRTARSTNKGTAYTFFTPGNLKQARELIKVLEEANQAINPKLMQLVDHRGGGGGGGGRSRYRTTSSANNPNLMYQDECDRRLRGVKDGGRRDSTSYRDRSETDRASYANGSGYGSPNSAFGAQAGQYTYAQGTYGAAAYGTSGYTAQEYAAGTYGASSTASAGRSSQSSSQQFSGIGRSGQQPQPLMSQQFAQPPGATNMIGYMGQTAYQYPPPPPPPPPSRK

[2] = molecular target: T2, MEKK1 (gene product of Map3k1), full-length wild type (mouse) (UniProt P53349); assay: as above
T2 sequence: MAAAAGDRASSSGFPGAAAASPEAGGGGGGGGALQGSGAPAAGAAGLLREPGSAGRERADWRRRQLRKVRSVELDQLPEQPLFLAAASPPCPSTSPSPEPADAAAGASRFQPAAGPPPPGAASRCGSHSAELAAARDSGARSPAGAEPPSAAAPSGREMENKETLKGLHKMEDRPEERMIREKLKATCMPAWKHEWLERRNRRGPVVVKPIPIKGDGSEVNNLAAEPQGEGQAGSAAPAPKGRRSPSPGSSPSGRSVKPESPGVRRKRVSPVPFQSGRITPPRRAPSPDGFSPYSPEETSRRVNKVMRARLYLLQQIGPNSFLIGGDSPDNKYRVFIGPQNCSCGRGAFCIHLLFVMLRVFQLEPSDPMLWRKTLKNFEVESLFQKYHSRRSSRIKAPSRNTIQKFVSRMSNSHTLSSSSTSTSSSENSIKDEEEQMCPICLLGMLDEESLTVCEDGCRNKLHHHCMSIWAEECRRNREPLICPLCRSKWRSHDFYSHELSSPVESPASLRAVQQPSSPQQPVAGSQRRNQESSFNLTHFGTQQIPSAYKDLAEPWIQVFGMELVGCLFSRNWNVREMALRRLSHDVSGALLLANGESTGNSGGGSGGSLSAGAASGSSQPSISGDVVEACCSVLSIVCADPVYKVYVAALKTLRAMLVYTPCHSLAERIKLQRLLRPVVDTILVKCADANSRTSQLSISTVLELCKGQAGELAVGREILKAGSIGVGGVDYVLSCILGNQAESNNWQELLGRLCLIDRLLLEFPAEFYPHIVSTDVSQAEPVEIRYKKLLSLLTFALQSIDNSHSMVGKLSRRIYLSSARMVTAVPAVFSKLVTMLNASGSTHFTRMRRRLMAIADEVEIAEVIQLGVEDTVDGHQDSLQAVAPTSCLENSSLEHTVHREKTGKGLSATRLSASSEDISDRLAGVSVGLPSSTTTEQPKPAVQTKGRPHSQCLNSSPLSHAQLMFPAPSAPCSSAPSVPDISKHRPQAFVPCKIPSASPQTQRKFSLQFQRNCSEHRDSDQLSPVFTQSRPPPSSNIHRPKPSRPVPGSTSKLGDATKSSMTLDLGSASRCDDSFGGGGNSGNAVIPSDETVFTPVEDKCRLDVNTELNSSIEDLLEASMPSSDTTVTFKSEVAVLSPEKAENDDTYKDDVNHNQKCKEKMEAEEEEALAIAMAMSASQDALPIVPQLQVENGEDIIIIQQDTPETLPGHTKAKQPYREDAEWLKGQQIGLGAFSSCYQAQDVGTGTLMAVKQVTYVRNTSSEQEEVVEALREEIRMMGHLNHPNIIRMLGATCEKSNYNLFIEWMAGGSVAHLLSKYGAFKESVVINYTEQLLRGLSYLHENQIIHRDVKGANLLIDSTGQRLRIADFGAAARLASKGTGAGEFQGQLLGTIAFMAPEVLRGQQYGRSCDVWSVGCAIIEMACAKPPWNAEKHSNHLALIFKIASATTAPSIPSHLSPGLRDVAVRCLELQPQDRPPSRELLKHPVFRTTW

binding [1]: binds | binding [2]: binds
Substance: DEAD box helicase 17 (DDX17) (from UniProt Q501J6 1-650)

Reference: paper PMC11735090
